Values quoted from earlier work in patent publication US20010018095A1, “Method of forming a membrant, especially a latex or polymer membrane, including multiple discrete layers” (priority 1987, published 2001).
The name of at least one read-out is uncertain.

Conditions: candidate solvents for polyurethane and biocide; cited from earlier work

## CCC(=O)CC [Diethyl ketone]
  Solubiltiy Parameter: 8.8 (cals/cc)^1/2

## C[S+](C)[O-] [Dimethyl sulfoxide (DMS), Dimethyl sulfoxide]
  Solubiltiy Parameter: 12 (cals/cc)^1/2
